Assay results reported in PMC4931016.
Results are given in words; binding and its absence hold for the method and conditions named. In cells and extracts the contact can be indirect. Some entries that bind do so weakly or less than the wild type.

Sequences of proteins named here, by UniProt entry; tags and fusion partners are left off. Residues count along the entry.
UniProt P08581, residues 25-1390: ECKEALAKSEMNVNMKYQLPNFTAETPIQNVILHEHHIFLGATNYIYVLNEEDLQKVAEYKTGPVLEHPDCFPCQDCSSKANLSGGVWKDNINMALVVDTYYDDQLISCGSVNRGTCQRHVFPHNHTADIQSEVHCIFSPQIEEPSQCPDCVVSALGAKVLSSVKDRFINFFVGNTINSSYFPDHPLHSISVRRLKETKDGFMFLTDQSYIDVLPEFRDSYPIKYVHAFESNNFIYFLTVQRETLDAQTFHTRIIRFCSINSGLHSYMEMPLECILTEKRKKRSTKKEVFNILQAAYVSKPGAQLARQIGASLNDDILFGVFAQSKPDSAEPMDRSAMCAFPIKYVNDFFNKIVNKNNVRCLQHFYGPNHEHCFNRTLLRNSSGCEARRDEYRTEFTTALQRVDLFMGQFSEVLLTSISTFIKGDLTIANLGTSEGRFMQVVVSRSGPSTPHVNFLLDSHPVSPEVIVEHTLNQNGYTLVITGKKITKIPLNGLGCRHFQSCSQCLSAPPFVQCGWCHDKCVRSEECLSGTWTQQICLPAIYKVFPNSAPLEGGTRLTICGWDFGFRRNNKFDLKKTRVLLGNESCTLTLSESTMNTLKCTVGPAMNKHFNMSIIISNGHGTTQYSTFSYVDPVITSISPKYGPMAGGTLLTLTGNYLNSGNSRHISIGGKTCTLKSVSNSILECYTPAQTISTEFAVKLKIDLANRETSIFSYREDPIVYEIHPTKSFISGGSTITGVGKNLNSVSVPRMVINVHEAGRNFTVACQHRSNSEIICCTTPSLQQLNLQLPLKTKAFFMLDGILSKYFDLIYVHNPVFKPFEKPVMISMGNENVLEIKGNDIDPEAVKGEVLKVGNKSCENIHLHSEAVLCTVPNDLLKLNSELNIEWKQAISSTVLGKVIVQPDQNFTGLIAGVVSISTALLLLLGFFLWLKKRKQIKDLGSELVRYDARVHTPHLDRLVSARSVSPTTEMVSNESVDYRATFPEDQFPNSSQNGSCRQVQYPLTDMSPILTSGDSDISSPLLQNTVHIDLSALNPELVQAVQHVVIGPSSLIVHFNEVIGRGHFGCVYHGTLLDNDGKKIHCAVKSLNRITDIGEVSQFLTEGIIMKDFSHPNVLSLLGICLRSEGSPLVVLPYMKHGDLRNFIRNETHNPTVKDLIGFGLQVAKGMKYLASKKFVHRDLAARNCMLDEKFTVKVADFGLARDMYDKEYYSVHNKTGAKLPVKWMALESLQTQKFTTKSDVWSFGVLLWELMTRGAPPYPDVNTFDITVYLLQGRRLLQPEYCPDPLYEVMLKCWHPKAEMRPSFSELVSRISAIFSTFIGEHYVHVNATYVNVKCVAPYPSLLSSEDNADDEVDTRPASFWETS
UniProt P16056, residues 25-1379: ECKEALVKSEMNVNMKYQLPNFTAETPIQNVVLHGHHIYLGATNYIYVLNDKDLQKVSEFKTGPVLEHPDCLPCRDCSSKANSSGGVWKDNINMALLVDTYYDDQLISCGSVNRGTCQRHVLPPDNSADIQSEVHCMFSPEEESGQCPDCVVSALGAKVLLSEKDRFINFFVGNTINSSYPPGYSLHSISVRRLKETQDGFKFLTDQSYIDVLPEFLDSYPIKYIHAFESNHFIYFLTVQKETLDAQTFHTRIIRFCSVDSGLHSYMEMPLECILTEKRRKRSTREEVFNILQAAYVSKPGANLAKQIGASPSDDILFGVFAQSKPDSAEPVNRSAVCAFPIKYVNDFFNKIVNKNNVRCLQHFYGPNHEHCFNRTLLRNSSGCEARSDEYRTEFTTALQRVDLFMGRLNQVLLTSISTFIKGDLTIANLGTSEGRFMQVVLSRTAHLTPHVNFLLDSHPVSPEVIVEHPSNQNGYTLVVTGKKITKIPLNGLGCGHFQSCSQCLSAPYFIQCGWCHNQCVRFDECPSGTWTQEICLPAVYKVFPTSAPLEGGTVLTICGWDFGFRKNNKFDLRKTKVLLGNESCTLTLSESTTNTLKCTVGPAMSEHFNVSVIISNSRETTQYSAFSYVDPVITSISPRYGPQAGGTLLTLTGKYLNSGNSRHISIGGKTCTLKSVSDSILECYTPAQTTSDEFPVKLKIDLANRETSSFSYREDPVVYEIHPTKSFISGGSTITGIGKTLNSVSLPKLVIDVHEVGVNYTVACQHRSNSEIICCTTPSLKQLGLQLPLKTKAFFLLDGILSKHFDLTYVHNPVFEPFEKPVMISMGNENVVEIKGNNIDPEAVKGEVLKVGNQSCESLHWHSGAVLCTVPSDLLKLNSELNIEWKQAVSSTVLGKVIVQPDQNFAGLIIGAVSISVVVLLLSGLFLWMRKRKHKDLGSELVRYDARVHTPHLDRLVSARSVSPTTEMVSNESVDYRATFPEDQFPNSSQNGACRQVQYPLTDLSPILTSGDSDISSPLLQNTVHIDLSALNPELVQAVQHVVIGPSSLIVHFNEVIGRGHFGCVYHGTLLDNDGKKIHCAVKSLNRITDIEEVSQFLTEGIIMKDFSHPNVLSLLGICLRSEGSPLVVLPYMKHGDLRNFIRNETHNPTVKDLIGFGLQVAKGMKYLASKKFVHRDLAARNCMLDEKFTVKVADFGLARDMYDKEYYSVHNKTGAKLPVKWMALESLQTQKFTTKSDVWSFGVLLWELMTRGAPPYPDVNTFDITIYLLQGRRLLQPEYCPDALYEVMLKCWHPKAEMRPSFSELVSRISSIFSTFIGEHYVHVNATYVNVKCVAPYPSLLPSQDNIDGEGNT

Tests used:
[1] = target: c-Met (hepatocyte growth factor receptor), endogenous in A549 cells (human (endogenous in A549)) (UniProt P08581); assay: co-IP; A549 cells kept in suspension, without or with HGF for 120 min; control, β1-integrin or ATG5 siRNA; lysis in 0.5% Triton X-100, 20 mM Tris pH 7.5, 150 mM NaCl; immunoprecipitation with c-Met (CVD13) or β1-integrin antibody, IgG or no-antibody controls; western blot
[2] = target: c-Met (hepatocyte growth factor receptor), endogenous in β1A and β1A-YYFF cells (mouse (endogenous in β1A cells)) (UniProt P16056); assay: co-IP; β1A (and β1A-YYFF) cells, HGF for 0 or 120 min; lysis in 0.5% Triton X-100, 20 mM Tris pH 7.5, 150 mM NaCl; immunoprecipitation with c-Met B2 antibody on protein A/G agarose beads, 4 °C; IgG and beads-only controls; western blot
[3] = target: β1-integrin, endogenous in A549 cells (human (endogenous in A549)), P05556; assay: co-IP; A549 cells kept in suspension, without or with HGF for 120 min; control, β1-integrin or ATG5 siRNA; lysis in 0.5% Triton X-100, 20 mM Tris pH 7.5, 150 mM NaCl; immunoprecipitation with c-Met (CVD13) or β1-integrin antibody, IgG or no-antibody controls; western blot; details: remark: other sources report otherwise

B1: p52Shc, endogenous in A549 cells (protein, UniProt P29353-2 1-473)
chain: MNKLSGGGGRRTRVEGGQLGGEEWTRHGSFVNKPTRGWLHPNDKVMGPGVSYLVRYMGCVEVLQSMRALDFNTRTQVTREAISLVCEAVPGAKGATRRRKPCSRPLSSILGRSNLKFAGMPITLTVSTSSLNLMAADCKQIIANHHMQSISFASGGDPDTAEYVAYVAKDPVNQRACHILECPEGLAQDVISTIGQAFELRFKQYLRNPPKLVTPHDRMAGFDGSAWDEEEEEPPDHQYYNDFPGKEPPLGGVVDMRLREGAAPGAARPTAPNAQTPSHLGATLPVGQPVGGDPEVRKQMPPPPPCPGRELFDDPSYVNVQNLDKARQAVGGAGPPNPAINGSAPRDLFDMKPFEDALRVPPPPQSVSMAEQLRGEPWFHGKLSRREAEALLQLNGDFLVRESTTTPGQYVLTGLQSGQPKHLLLVDPEGVVRTKDHRFESVSHLISYHMDNHLPIISAGSELCLQQPVERKL
[1]
  binding: binds

B2: p52Shc, endogenous in β1A and β1A-YYFF cells (protein, UniProt P98083-2 1-469)
chain: MNKLSGGGGRRTRVEGGQLGGEEWTRHGSFVNKPTRGWLHPNDKVMGPGVSYLVRYMGCVEVLQSMRALDFNTRTQVTREAISLVCEAVPGAKGATRRRKPCSRPLSSILGRSNLKFAGMPITLTVSTSSLNLMAADCKQIIANHHMQSISFASGGDPDTAEYVAYVAKDPVNQRACHILECPEGLAQDVISTIGQAFELRFKQYLRNPPKLVTPHDRMAGFDGSAWDEEEEEPPDHQYYNDFPGKEPPLGGVVDMRLREGAARPTLPSAQMSSHLGATLPIGQHAAGDHEVRKQMLPPPPCPGRELFDDPSYVNIQNLDKARQAGGGAGPPNPSLNGSAPRDLFDMKPFEDALRVPPPPQSMSMAEQLQGEPWFHGKLSRREAEALLQLNGDFLVRESTTTPGQYVLTGLQSGQPKHLLLVDPEGVVRTKDHRFESVSHLISYHMDNHLPIISAGSELCLQQPVDRKV
[2]
  binding: binds

B3: p52Shc, endogenous in A549 cells, P29353-2 1-473 (protein)
chain: MNKLSGGGGRRTRVEGGQLGGEEWTRHGSFVNKPTRGWLHPNDKVMGPGVSYLVRYMGCVEVLQSMRALDFNTRTQVTREAISLVCEAVPGAKGATRRRKPCSRPLSSILGRSNLKFAGMPITLTVSTSSLNLMAADCKQIIANHHMQSISFASGGDPDTAEYVAYVAKDPVNQRACHILECPEGLAQDVISTIGQAFELRFKQYLRNPPKLVTPHDRMAGFDGSAWDEEEEEPPDHQYYNDFPGKEPPLGGVVDMRLREGAAPGAARPTAPNAQTPSHLGATLPVGQPVGGDPEVRKQMPPPPPCPGRELFDDPSYVNVQNLDKARQAVGGAGPPNPAINGSAPRDLFDMKPFEDALRVPPPPQSVSMAEQLRGEPWFHGKLSRREAEALLQLNGDFLVRESTTTPGQYVLTGLQSGQPKHLLLVDPEGVVRTKDHRFESVSHLISYHMDNHLPIISAGSELCLQQPVERKL
[3]
  binding: binds
